These results are taken from PMC5469152.

This assay deals with T1, Extra-large G protein 1 (XLG1), yeast two-hybrid bait (Arabidopsis thaliana) (UniProt O80462).
T1 sequence: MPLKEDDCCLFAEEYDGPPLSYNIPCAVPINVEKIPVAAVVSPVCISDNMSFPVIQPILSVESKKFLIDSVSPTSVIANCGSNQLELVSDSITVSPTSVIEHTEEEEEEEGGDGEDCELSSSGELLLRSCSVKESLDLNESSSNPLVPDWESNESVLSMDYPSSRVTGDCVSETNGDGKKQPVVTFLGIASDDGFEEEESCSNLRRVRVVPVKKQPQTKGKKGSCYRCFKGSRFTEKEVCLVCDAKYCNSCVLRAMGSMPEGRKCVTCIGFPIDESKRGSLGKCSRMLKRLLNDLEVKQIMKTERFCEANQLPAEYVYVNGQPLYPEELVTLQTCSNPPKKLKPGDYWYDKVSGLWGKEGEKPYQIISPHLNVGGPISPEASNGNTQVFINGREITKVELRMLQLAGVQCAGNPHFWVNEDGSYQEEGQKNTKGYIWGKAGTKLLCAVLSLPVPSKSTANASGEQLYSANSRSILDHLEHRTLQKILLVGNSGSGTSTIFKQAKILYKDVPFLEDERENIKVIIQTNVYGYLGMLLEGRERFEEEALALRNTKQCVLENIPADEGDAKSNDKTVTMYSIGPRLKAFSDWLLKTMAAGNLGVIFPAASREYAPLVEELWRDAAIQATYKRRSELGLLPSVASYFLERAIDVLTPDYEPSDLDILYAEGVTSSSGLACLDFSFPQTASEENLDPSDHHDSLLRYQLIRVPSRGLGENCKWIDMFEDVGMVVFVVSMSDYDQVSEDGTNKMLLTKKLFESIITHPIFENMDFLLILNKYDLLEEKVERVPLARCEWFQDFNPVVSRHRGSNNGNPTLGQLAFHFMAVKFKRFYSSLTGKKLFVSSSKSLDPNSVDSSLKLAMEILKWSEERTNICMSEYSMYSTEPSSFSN
The assay is described as follows: two-hybrid; library screen by mating; XLG1 bait in pAS2-1 in strain AH109, cDNA libraries (GLUC, ROOT, SAL) in Y187; quadruple dropout (-Try/Leu/His/Ade) plates with 10 mM 3-AT, then with 20 mM 3-AT.

These are yes or no findings as the source states them, for the method shown. A result given as binding can be weak or reduced; the word gives no strength.

Take “SCP1-like small phosphatase 4b (Arabidopsis thaliana)”: the binding result is given as “binds”.

As for “RNA recognition motif-containing protein (At3g04500) (Arabidopsis thaliana)”, the binding entry is given as “binds”.

For “Dessication responsive protein (Arabidopsis thaliana)”, the binding entry is listed as “binds”.
